# Measurements as given in PubChem BioAssay AID540256 (National Center for Advancing Translational Sciences (NCATS), 2011).
# In all, about 300,000 compounds went through this assay and about 3,700 (1.2%) were called active. Inconclusive results, whose numbers are uncertain, are shown with a selection of clear calls. Calls come from the whole dose curve; tested in HEK293 cells. Potencies of inconclusive entries are doubtful fits and often do not repeat.
# Assay: qHTS for Inhibitors of binding or entry into cells for Lassa Virus; note: nearly all actives have a fitted effect of over 50% in size
# Settings: Lassa virus pseudotype entry inhibition, cell reporter; series mostly up to 37.9 µM
# Potency is the fitted concentration of half-maximal effect.
row,Compound,Potency
1,CCN(CC)S(=O)(=O)c1cc(C(=O)Nc2ccc(Cl)cn2)ccc1C,"inconclusive: 35.5 µM [inhibitor, single point]"
2,CCCc1nc2ccc(NC(=O)c3cccs3)cc2c(=O)n1Cc1ccccc1Cl,"inconclusive: 14.1 µM [inhibitor, partial curve, poor fit]"
3,O=C(Nc1ccccc1C(F)(F)F)c1ccc(F)c(S(=O)(=O)N2CCc3ccccc3C2)c1,inactive
4,CCN(CC)C(=O)C1=C(C)Nc2nc3ccccc3n2C1c1cccc(OC)c1 (centres undefined),inactive
5,COc1ccc([N+](=O)[O-])cc1NC(=O)Cn1ccsc1=N,"inconclusive: 1.26 µM [activator, single point]"
6,CCc1ccccc1N(C(=O)c1cccs1)C1C=CS(=O)(=O)C1 (centres undefined),inactive
7,Cc1cccc(N(CC(=O)N2CCN(C)CC2)S(=O)(=O)c2ccccc2)c1,"inconclusive: 25.1 µM [activator, single point]"
8,Cc1ccc(Cn2c(=N)c(C(=O)NCC3CCCO3)cc3c(=O)n4ccccc4nc32)cc1 (centres undefined),"inconclusive: 35.5 µM [inhibitor, single point]"
9,Cc1cc(S(=O)(=O)NCc2cccnc2)ccc1F,"inconclusive: 28.2 µM [inhibitor, single point]"
10,O=C(c1ccc2c(c1)OCO2)N1CCc2ccccc2C1,"inconclusive: 3.66 µM [activator, single point]"
11,CCCN(CC(=O)Nc1ccccc1C)C(=O)c1ccc(N2CCCCC2)c([N+](=O)[O-])c1,"inconclusive: 35.5 µM [inhibitor, partial curve, poor fit]"
12,CCCCOC(=O)c1ccc(NC(=O)C2CCCO2)cc1 (centres undefined),inactive
13,O=C(NCCCN1CCOCC1)C(=O)NCc1ccccc1Cl,inactive
14,CCC(=O)N1CCc2cc(Br)cc(S(=O)(=O)NCCN3CCCC3)c21,inactive
15,CCOC(=O)c1cc(-c2ccccc2)n(CC(=O)Nc2ccc(OC)cc2)c1C,"inconclusive: 0.082 µM [inhibitor, full curve, poor fit]"
16,Cc1ccc2cccnc2c1N,"inconclusive: 7.08 µM [activator, partial curve]"
17,COC(=O)CSc1nnc(-c2sc3ccccc3c2Cl)o1,"inconclusive: 35.5 µM [inhibitor, single point]"
18,Cc1nn(-c2ccccc2)c(Cl)c1/C=C/C(=O)c1ccc(O)cc1,"inconclusive: 25.1 µM [inhibitor, single point]"
19,NC(=O)N1c2ccccc2C=Cc2ccccc21,"inconclusive: 4.61 µM [inhibitor, partial curve, poor fit]"
20,CC(CCC(=O)OC[C@H]1O[C@H](C#Cc2ccccc2)C=C[C@H]1Oc1ccc(C)cc1)=NO[C@@H](C)c1cn([C@H](CO)Cc2ccccc2)nn1,"inconclusive: 7.5 µM [inhibitor, single point]"
21,CNCCOc1ccccc1-c1ccccc1,inactive
22,Cc1ccc(-c2noc(CNC(=O)c3ccc(C)c(Cl)c3)n2)cc1,inactive

row,Compound,Potency
1,CCCCOc1ccc(-c2nnn(C(C)(C)C(=O)OC)n2)cc1,"inconclusive: 23.1 µM [inhibitor, partial curve]"
2,Cc1ccc(C)c(CS(=O)(=O)c2cn(CC(=O)N3CCCCC3)c3ccccc23)c1,inactive
3,COC(=O)C1=C(C)N(CCc2cc(OC)c(OC)c(OC)c2)C(=O)N[C@H]1c1ccc(Br)cc1,"inconclusive: 29.1 µM [inhibitor, single point]"
4,COc1ccc(-c2cnc3c(c2)CCC3(C#N)C#N)cc1,"inconclusive: 7.94 µM [inhibitor, partial curve, poor fit]"
5,Cc1nc(NC(=O)c2cc3ccccc3o2)sc1C,"inconclusive: 0.891 µM [inhibitor, single point]"
6,O=C1C=CC(=O)N1c1ccccc1N1C(=O)C=CC1=O,active: 11.2 µM
7,CCCn1c(-c2cc(OC)c(OC)c(OC)c2)nc2nc3ccccc3nc21,inactive
8,CC(=O)Nc1ccc(S(=O)(=O)Oc2cccc(N3C(=O)C4CC=CCC4C3=O)c2)cc1 (centres undefined),inactive
9,CCOc1ccc(NS(=O)(=O)c2ccc3c(c2)NC(=O)CCS3)cc1,"inconclusive: 7.94 µM [inhibitor, partial curve]"
10,COc1ccc(C(=O)N[C@H](C(=O)Nc2ccc(OC)nc2)C(C)C)cc1,"inconclusive: 15.8 µM [activator, partial curve, poor fit]"
11,CC1(C)Oc2ccc3ccc(=O)oc3c2/C(=C/NNC(N)=S)C1=O,inactive
12,CCCc1nc2ccccc2c(=O)n1CC(=O)c1ccc(OC)cc1,"inconclusive: 35.5 µM [activator, single point]"
13,COc1ccc(C(=O)Nc2sc(C(=O)N(C)C)c(C)c2C#N)cc1[N+](=O)[O-],"inconclusive: 10 µM [inhibitor, partial curve, poor fit]"
14,C=CCS(=O)(=O)c1nc2ccccc2s1,"inconclusive: 35.5 µM [inhibitor, single point]"
15,COc1ccc(CCNC(=O)c2ccc(-n3c(C)cc4c3CCC(C)C4)cc2)cc1OC (centres undefined),"inconclusive: 14.1 µM [inhibitor, single point]"
16,O=C(CCS(=O)(=O)Cc1ccccc1)Nc1nnc(C(F)(F)F)s1,"inconclusive: 32.6 µM [inhibitor, single point]"
17,O=C(O)/C=C/C(=O)Nc1ccccc1C(=O)Nc1ccccc1,"inconclusive: 6.51 µM [activator, single point]"
18,CC(C)(C)c1ccc(CN2N=Nc3ccccc3S2(=O)=O)cc1,active: 11.2 µM
19,Cc1c(Cl)cccc1NC(=O)C(=O)NCCc1csc(-c2ccc(C(F)(F)F)cc2)n1,"inconclusive: 4.47 µM [inhibitor, partial curve, poor fit]"
20,O=[N+]([O-])c1ccc2c(c1)c1ccccc1n2CCO,inactive
21,CC1CCCCC1NC(=O)c1ccc2c(c1)[nH]c(=O)n2C1CCCC1 (centres undefined),"inconclusive: 10.3 µM [inhibitor, partial curve, poor fit]"
22,O=c1cc(CN2CCCc3ccccc32)nc2sccn12,"inconclusive: 6.31 µM [inhibitor, single point]"

# An excerpt of these results, as tab-separated lines.
row	Compound	Potency
3	COC(=O)C1=C(C)N(CCc2cc(OC)c(OC)c(OC)c2)C(=O)N[C@H]1c1ccc(Br)cc1	inconclusive: 29.1 µM [inhibitor, single point]
4	COc1ccc(-c2cnc3c(c2)CCC3(C#N)C#N)cc1	inconclusive: 7.94 µM [inhibitor, partial curve, poor fit]
